Data as given in patent US20080008651A1, “Screening Methods and Transgenic Animals for the Treatment of Beta-Globin Related Disease and Conditions” (THE REGENTS OF THE UNIVERSITY OF MICHIGAN, published 2008).
Results from cells or extracts need not show a direct contact. For some assays here: A weaker result is weaker than the reference pair of the same experiment. For some assays here: Where a protein sequence is shown, tags need not be part of it. For some assays here: For at least one entry, the source does not settle the construct or the ends of the probe. For some assays here: A negative result means that nothing was seen under these conditions.

What was measured:
Assay in all cases: EMSA
[1] = biological target: T1, TR2 (Mus musculus) (UniProt Q505F1); conditions: weak signal; protein in a lysate after overexpression; label: 32P (probe)
T1 sequence (looked up, limits assumed): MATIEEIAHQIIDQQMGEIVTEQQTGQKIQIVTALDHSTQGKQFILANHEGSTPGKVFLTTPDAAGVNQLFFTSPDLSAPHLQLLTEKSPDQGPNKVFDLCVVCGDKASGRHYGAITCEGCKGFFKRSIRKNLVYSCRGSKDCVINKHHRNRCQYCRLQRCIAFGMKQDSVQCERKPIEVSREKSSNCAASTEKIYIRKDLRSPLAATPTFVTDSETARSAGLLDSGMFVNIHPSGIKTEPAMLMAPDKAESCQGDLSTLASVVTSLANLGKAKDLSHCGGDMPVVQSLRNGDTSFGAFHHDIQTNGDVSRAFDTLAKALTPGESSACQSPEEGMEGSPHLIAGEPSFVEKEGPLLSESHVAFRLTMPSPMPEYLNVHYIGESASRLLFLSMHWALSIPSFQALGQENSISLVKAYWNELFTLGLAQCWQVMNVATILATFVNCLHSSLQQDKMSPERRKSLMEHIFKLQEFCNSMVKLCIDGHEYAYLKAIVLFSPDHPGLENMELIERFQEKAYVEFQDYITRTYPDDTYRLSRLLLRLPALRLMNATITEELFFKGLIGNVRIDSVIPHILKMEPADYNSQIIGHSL

[2] = system: TR2 coexpressed with dnTR2 dnTR2 chain: three Lys/Arg to Glu in DNA binding domain (Mus musculus); conditions: TR2 binding not affected by dnTR2; protein in a lysate after overexpression; protein details: coexpressed in 293T, nuclear extract; label: 32P (probe)
[3] = system: TR2 coexpressed with dnTR4 dnTR4 chain: three Lys/Arg to Glu in DNA binding domain (Mus musculus); conditions: TR2 binding abolished by coexpressed dnTR4; protein in a lysate after overexpression; protein details: coexpressed in 293T, nuclear extract; label: 32P (probe)
[4] = system: TR2/TR4 heterodimer (Mus musculus); conditions: most intense signal; heterodimer > TR4 homodimer >> TR2 homodimer; protein in a lysate after overexpression; label: 32P (probe)
[5] = biological target: T2, TR4 (Mus musculus) (UniProt P49117); conditions: robust complex; protein in a lysate after overexpression; label: 32P (probe)
T2 sequence (looked up, limits assumed): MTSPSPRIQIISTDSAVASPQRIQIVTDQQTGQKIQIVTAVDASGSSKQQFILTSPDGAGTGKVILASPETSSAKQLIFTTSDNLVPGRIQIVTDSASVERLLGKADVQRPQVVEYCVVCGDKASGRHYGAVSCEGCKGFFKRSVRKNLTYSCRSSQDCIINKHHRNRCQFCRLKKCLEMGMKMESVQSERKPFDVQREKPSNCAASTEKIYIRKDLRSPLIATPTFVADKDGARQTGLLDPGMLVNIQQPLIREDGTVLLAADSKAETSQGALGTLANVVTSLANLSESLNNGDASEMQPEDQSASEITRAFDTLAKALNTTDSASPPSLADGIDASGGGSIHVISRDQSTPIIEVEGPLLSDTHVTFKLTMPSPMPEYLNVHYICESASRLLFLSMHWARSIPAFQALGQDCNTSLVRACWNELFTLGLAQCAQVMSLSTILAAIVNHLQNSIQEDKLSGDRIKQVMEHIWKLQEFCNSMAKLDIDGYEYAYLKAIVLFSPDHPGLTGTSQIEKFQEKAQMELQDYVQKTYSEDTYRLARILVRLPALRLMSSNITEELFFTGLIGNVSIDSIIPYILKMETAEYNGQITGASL

Sequence: CCCTGAGGACACAGGTCAGCCTTG (double strand) [epsilon distal DR]
- binding result [1]: binds more weakly
- binding result [2]: binds
- binding result [3]: no binding
- binding result [4]: binds
- binding result [5]: binds
